Test results published in PubChem BioAssay AID2417 (National Center for Advancing Translational Sciences (NCATS), 2010).
Out of some 140,000 compounds screened, about 4,300 (3.1%) were called active. The shares of active, inactive and inconclusive entries below differ from those in the screen.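 How the source made its calls: active means readout at or below -70, meaning at least 70% loss of cells showing the perinucleolar compartment, a nuclear body marking cancer cells; inconclusive means readout between -30 and a set limit; inactive means the rest.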

Assay: High Content Assay for Compounds that inhibit the Assembly of the Perinucleolar Compartment;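 further: plate controls were DMSO wells for no effect and camptothecin positive control wells for full effect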
Details: PC3M PTB-GFP, PNC prevalence imaging, 16 h; at 10 µM; active compounds read low
How it was run: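 PC3M cells stably expressing PTB-GFP, 750–1000 cells/well, treated 16 h at 37 °C with compound (23 nl of library stock), in duplicate. After paraformaldehyde fixation and Hoechst stain, imaged at 20x; PNC prevalence scored by image analysis.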

SMILES | activity change (PNC), negative = inhibition
O=c1oc(-c2cccc(S(=O)(=O)N3CCOCC3)c2)nc2ccccc12 | inconclusive: -49.5%
CCN(CC(=O)Nc1ccccc1C(=O)OC)S(=O)(=O)c1ccccc1 | inconclusive: -41.3%
Cc1ccc(NC(=S)c2ccccc2)cc1 | inconclusive: -52.2%
COc1ccc(NC(=O)C23CC4CC(C2)CC(c2ccc(C)cc2)(C4)C3)cc1 | inconclusive: -38.7%
CCOC(=O)C(=NCCCN(C)C)NNc1ccc(Br)cc1 | inactive: 42.4%
Cc1cc2cc(CNC(=O)CC(C)C)ccc2n1C | inactive: 34.8%
COc1ccc(NC(=O)c2ccccc2-c2ccc(C(F)(F)F)cc2)cc1S(=O)(=O)N1CCOCC1 | inconclusive: -31.1%
Cc1cccc(OCc2nnc(SCC(=O)N3c4ccccc4CC3C)n2C)c1C (centres undefined) | inconclusive: -58.4%
COc1ccccc1C(=O)N/N=C/c1ccc(Cl)s1 | inconclusive: -54.2%
COc1ccc(Oc2ccc(/C=C/C(=O)c3cccc(OC)c3)cc2[N+](=O)[O-])cc1 | inactive: 60.1%
CN(C)CCN1C(=O)C(=O)/C(=C(/O)c2ccc(F)cc2)C1c1ccccc1 (centres undefined) | inconclusive: -30.9%
CCC(=O)N/C(=N/c1nc(C)cc(C)n1)Nc1cccc(OC)c1 | inconclusive: -56.2%
Oc1ccc(N=Cc2sc3ccccc3c2Cl)cc1 | inconclusive: -44.4%
c1ccc(-n2ncc3c(N4CCCC4)ncnc32)cc1 | inconclusive: -42.1%
Cn1nnc(NC(=O)COc2ccc(C3CCCCC3)cc2)n1 | inconclusive: -74.5%
Cc1ccn2c(NC(=O)c3ccccc3)c(-c3cccs3)nc2c1 | inconclusive: -33.9%
CN(C)C(=O)CN(c1ccc(F)c(Cl)c1)S(C)(=O)=O | inconclusive: -62.4%
Cc1cc(C)nc(SCC(=O)N/N=C/c2cccn2-c2cccc(C(F)(F)F)c2)n1 | active: -108%
CC(C)(C)c1ccc(S(=O)(=O)N2CCCCC2C(=O)NCc2ccccn2)cc1 (centres undefined) | inconclusive: -51.2%
O=c1c2c(nc3nc(Cc4ccccc4)[nH]n13)CCC2 | active: -89.8%
Cn1c(-c2c(N)n(C3CCCC3)c3nc4ccccc4nc23)nc2ccccc21 | active: -94.4%
Cc1ccc(C)c(NC(=S)N2CCN(CCO)CC2)c1 | inactive: -4.33%
C=CCN1CCN(Cc2cnc(Cl)s2)CC1 | inconclusive: -45.1%

SMILES | activity change (PNC), negative = inhibition
S=c1nc(-c2ccccc2)n(Cc2ccco2)c2c1CCCC2 | inactive: 24.8%
COc1cc(/C=C(\NC(=O)c2ccccc2)C(=O)NCC(=O)O)c([N+](=O)[O-])cc1OC | inactive: 11.7%
CCOc1ccc(C(=O)OCc2nnc(-c3cccs3)o2)cc1OC | inconclusive: -53.5%
CN1CCN(Cc2cccc(Oc3ccccc3)c2)CC1 | inconclusive: -30.6%
Cc1ccc(C(C(=O)NC2CCCCC2)N(Cc2ccccc2)C(=O)Cc2c[nH]c3ccccc23)o1 (centres undefined) | inactive: 39.6%
CCOc1ccc(NC(=O)COC(=O)CCCc2c[nH]c3ccccc23)cc1 | inactive: 66.7%
COc1ccnc(Oc2ccc(C)cc2C)c1C#N | inconclusive: -35.6%
COc1ccc(NC(=O)Nc2nnc(-c3ccccc3SCc3ccccc3)s2)cc1 | inconclusive: -37.2%
CCC(CC)C(=O)Nc1c2cnn(-c3ccccc3)c2nc(=O)n1-c1ccccc1 | inconclusive: -32.9%
O=C(CN1CCN(c2ccccc2)CC1)c1ccc2cc[nH]c2c1 | inconclusive: -36.2%
c1ccc(-c2cc(N3CCCCCC3)n[nH]2)cc1 | inconclusive: -49.2%
CCc1ccccc1NC(=O)CC(c1ccc(OC)cc1)n1cccc1 (centres undefined) | inconclusive: -41.1%
CCOc1ccccc1NC(=O)C(CC(C)C)NC(=O)C1CCCCC1 (centres undefined) | inconclusive: -61.6%
CCn1c(SCC(=O)N/N=C/C=C\c2ccco2)nc2ccccc21 | inactive: -15.2%
COc1cccc(N2C(C(C)=O)=NN(c3ccccc3)C2c2ccc(N3CCOCC3)cc2)c1 (centres undefined) | inconclusive: -65.1%
O=C(c1ccncc1)N(c1ccc2oc3c(c2c1)CCCC3)S(=O)(=O)c1ccc(F)cc1 | inconclusive: -63.4%
CCC(=O)Nc1ccc(S(=O)(=O)Nc2cc(C)on2)cc1 | inconclusive: -59.3%
c1ccc(-c2nc3nonc3nc2-c2ccccc2)cc1 | inactive: 39.2%
Cc1ccc(-c2nn(-c3ccccc3)c3[nH]c(=O)c(CNCCN(C)C)cc23)cc1 | inconclusive: -38.7%
COc1cc(/C=N/NC(=O)c2ccc([N+](=O)[O-])cc2Cl)cc(Br)c1O | inconclusive: -65.5%
CNc1nc(CCN2C(=O)c3ccccc3C2=O)cs1 | inactive: -4.73%
COc1ccc(Nc2cnn(-c3nc4ccccc4s3)c(=O)c2Cl)cc1 | inactive: 37.9%
CC1CCCN(c2nc3nonc3nc2N2CCCC(C)C2)C1 (centres undefined) | inconclusive: -44.2%

SMILES | activity change (PNC), negative = inhibition
Cc1ccc(S(=O)(=O)C2(C(=O)NCc3ccc4c(c3)OCO4)CC2)cc1 | inactive: -15.4%
Cc1ccc(S(=O)(=O)Nc2cccc3cccnc23)cc1 | inconclusive: -46.5%
COc1cc2c(cc1OC)/C(=C/C(=O)N1CCOCC1)NC(C)(C)C2 | inactive: 66.3%
CN(c1cccc(NC(=O)CN(c2ccc(Cl)c(Cl)c2)S(=O)(=O)c2ccccc2)c1)S(C)(=O)=O | active: -100%
O=C(Cc1c[nH]c2ccccc12)N/N=C/c1ccc(F)cc1 | inconclusive: -32.4%
O=C(CNC(=O)Cc1ccccc1)N=Nc1c(O)n(Cc2ccc3c(c2)OCO3)c2ccccc12 | inconclusive: -38.5%
COc1ccc(Cl)cc1NC(=O)C(=O)N/N=C/c1cc(C)n(-c2ccc(C)cc2)c1C | inconclusive: -53.2%
CCOc1ccc(-c2cn3ccccc3n2)cc1[N+](=O)[O-] | inconclusive: -65.4%
CCCCCOC(=O)NCC(O)c1ccccc1 (centres undefined) | inconclusive: -54%
O=C(N/N=C/c1cc(Cl)ccc1O)c1ccc(Br)cc1 | active: -107%
Cc1c(NC2=NC(C)(C)Cc3ccccc32)c(=O)n(-c2ccccc2)n1C | active: -88.5%
CCOC(=O)c1ccn(-c2nc(-c3ccco3)cc(C(F)(F)F)n2)n1 | inconclusive: -53.7%
C(=C\c1nnc2c3ccccc3ncn12)/c1ccccc1 | active: -96.8%
NS(=O)(=O)c1ccc(NC(=O)COC(=O)c2c3c(nc4ccccc24)/C(=C\c2ccc4c(c2)OCO4)CCC3)cc1 | inconclusive: -47.8%
CC(=O)Nc1ccc(N=Cc2nc(-c3ccc(C)cc3)oc2O)cc1 | inconclusive: -57.3%
O=C(Nc1ccc2c(c1)nc1n2CCSC1)c1ccccc1 | inconclusive: -31%
Fc1ccc(CSc2nncn2NCc2ccccc2)cc1 | inactive: -20.8%
CCOC(=O)c1cccc(NC(=O)CSc2nc3ccccc3c(=O)n2CCOC)c1 | inconclusive: -36.2%
O=C(N/N=C/c1ccc([N+](=O)[O-])o1)c1ccc(O)cc1 | inactive: -26.6%
COC(=O)C(C(=O)OC)C(C(=O)OC)C(C(=O)OC)C(=O)OC | inconclusive: -66.8%
COc1ccc(C(=O)N2CC(=O)N(CCc3ccccc3)C(=O)C2)cc1OC | inactive: 7.03%
CC(=O)c1sc(NC(=O)c2c(F)cccc2F)nc1C | inconclusive: -34.2%
COc1ccc(CN2CCC(C(=O)N3CCN(c4ccccc4F)CC3)CC2)cc1OC | inconclusive: -46.6%

Some of the entries so far, tab-delimited:
SMILES	activity change (PNC), negative = inhibition
CC1CCCN(c2nc3nonc3nc2N2CCCC(C)C2)C1 (centres undefined)	inconclusive: -44.2%
Cc1ccc(S(=O)(=O)Nc2cccc3cccnc23)cc1	inconclusive: -46.5%
COc1cc2c(cc1OC)/C(=C/C(=O)N1CCOCC1)NC(C)(C)C2	inactive: 66.3%
CN(c1cccc(NC(=O)CN(c2ccc(Cl)c(Cl)c2)S(=O)(=O)c2ccccc2)c1)S(C)(=O)=O	active: -100%
O=C(Cc1c[nH]c2ccccc12)N/N=C/c1ccc(F)cc1	inconclusive: -32.4%
O=C(CNC(=O)Cc1ccccc1)N=Nc1c(O)n(Cc2ccc3c(c2)OCO3)c2ccccc12	inconclusive: -38.5%
COc1ccc(Cl)cc1NC(=O)C(=O)N/N=C/c1cc(C)n(-c2ccc(C)cc2)c1C	inconclusive: -53.2%
CCOc1ccc(-c2cn3ccccc3n2)cc1[N+](=O)[O-]	inconclusive: -65.4%
CCCCCOC(=O)NCC(O)c1ccccc1 (centres undefined)	inconclusive: -54%
O=C(N/N=C/c1cc(Cl)ccc1O)c1ccc(Br)cc1	active: -107%
Cc1c(NC2=NC(C)(C)Cc3ccccc32)c(=O)n(-c2ccccc2)n1C	active: -88.5%
C(=C\c1nnc2c3ccccc3ncn12)/c1ccccc1	active: -96.8%
NS(=O)(=O)c1ccc(NC(=O)COC(=O)c2c3c(nc4ccccc24)/C(=C\c2ccc4c(c2)OCO4)CCC3)cc1	inconclusive: -47.8%
CC(=O)Nc1ccc(N=Cc2nc(-c3ccc(C)cc3)oc2O)cc1	inconclusive: -57.3%
O=C(Nc1ccc2c(c1)nc1n2CCSC1)c1ccccc1	inconclusive: -31%
Fc1ccc(CSc2nncn2NCc2ccccc2)cc1	inactive: -20.8%
CCOC(=O)c1cccc(NC(=O)CSc2nc3ccccc3c(=O)n2CCOC)c1	inconclusive: -36.2%
O=C(N/N=C/c1ccc([N+](=O)[O-])o1)c1ccc(O)cc1	inactive: -26.6%
COc1ccc(C(=O)N2CC(=O)N(CCc3ccccc3)C(=O)C2)cc1OC	inactive: 7.03%
CC(=O)c1sc(NC(=O)c2c(F)cccc2F)nc1C	inconclusive: -34.2%
COc1ccc(CN2CCC(C(=O)N3CCN(c4ccccc4F)CC3)CC2)cc1OC	inconclusive: -46.6%

The list continues.

SMILES | activity change (PNC), negative = inhibition
Cc1ccc(-c2csc(N/N=C/c3ccco3)n2)c(C)c1 | inconclusive: -72.7%
Cc1c([N+](=O)[O-])c(C(=O)Nc2ccc3c(c2)OCCO3)nn1C | inconclusive: -69.9%
COc1ccc(-c2noc(-c3ccc(Cl)cc3[N+](=O)[O-])n2)cc1OC | inconclusive: -32.9%
CCc1ccc(C2=NNC(=Nc3cccc(S(=O)(=O)N(C)C)c3)SC2)cc1 | inactive: 6.18%
COCCN1CCn2c(nc3cc(NC(=O)c4cccs4)ccc32)C1 | inconclusive: -30.2%
O=C(Nc1cccc(NS(=O)(=O)c2ccc(S(=O)(=O)NC3CC3)cc2)c1)c1ccccn1 | inconclusive: -54.1%
Cc1ccc(C)c(S(=O)(=O)N2CCN(CC(=O)N3CCc4ccccc4C3)CC2)c1 | inactive: 2.78%
COc1ccc(Cl)cc1N(CC(=O)NC(C(C)C)C(C)C)S(C)(=O)=O | inconclusive: -44.6%
CSc1nc2ccc3nc(NC(=O)c4cccs4)sc3c2s1 | inconclusive: -31.9%
Nc1nc2ccc(N3CCOCC3)cc2s1 | inconclusive: -31.2%
Cc1cccc(C(=O)NC(=S)N2CCc3ccccc3C2)c1 | active: -81.9%
CC(C)(C)c1[nH]nc2c1C(c1ccoc1)C(C#N)=C(N)O2 (centres undefined) | inactive: -21.8%
Cc1cccc(NC(=O)c2ccc(COc3cccc4ccccc34)o2)n1 | inconclusive: -38.1%
CC(NC(=O)C(NC(=O)C1CCCN1C(=O)OC(C)(C)C)C(C)C)C(N)=O (centres undefined) | active: -94.4%
O=C1NC(=S)N/C1=C/c1ccc(Oc2ccc(C(F)(F)F)cc2[N+](=O)[O-])c(Cl)c1 | inconclusive: -61.5%
CCOc1ncccc1C(=O)Nc1ccccc1C(=O)NCc1ccc2c(c1)OCO2 | inactive: -26.2%
COc1ccc(OCC(=O)OC(C)CN2CCOCC2)cc1 (centres undefined) | inconclusive: -32.2%
CSCc1nnc(NC(=O)c2ccc(S(=O)(=O)N(CC(C)C)CC(C)C)cc2)o1 | inactive: 30.9%
O=C(/C=N/O)Nc1ccc(F)cc1 | inconclusive: -31.7%
O=C(O)C1C2C=CC3(CN(C4CCCC4)C(=O)C13)O2 (centres undefined) | inconclusive: -46.8%
